The source of these data is PubChem BioAssay.

Several values for one entry are separate records, joined by “and”; a condition that tells them apart may be missing. Identical values can stand only once. The list shows a part of the results. The main result of the screen is listed elsewhere. These columns were measured beside it and carry no call. The list favours compounds with an active or inconclusive main result. Bridge positions count the residues as written; N and C are the ends. Square brackets hold non-standard residues; d marks the D form. Peptide text beside a SMILES is read from it. * marks the point of attachment. Octanoyl(6-Me) = CCC(C)CCCCC(=O)*; Dab = NCC[CH](N)C(=O)O

A short description of the experiment: enhancers of SMN2 over SMN1 splicing, cell-based, SMN2/SMN1 luciferase reporters (AID 1598). Particulars: SMN2 vs SMN1 luciferase splicing reporter cells, at 10 µM; SMN1 luciferase ratio: measured here: SMN1 luciferase reporter average; SMN2 luciferase ratio: measured here: SMN2 luciferase reporter average, stronger effect = higher value. A general note: In a reporter assay the amount or activity of a reporter protein is the signal.
For the molecule `NC(N)=NC(=O)c1nc(Cl)c(N)nc1N`, the SMN2 luciferase ratio turned out to be 0.97 and the SMN1 luciferase ratio amounted to 0.96.
For the molecule `CCCCC1C(=O)N(c2ccccc2)N(c2ccccc2)C1=O`, the SMN2 luciferase ratio came out at 0.92 and the SMN1 luciferase ratio stood at 0.94.
In the same order, the values of `C[C@@H]1CC2C3C[C@H](F)C4=CC(=O)C=CC4(C)C3(F)[C@@H](O)CC2(C)C1C(=O)COC(=O)C(C)(C)C` (stereo partly drawn) are 1.01 and 0.94.
In the same order, the values of `NS(=O)(=O)c1cc2c(cc1C(F)(F)F)NCNS2(=O)=O` are 0.79 and 0.86.
`CN1CCC(=C2c3ccccc3Sc3ccccc32)CC1`: the SMN1 luciferase ratio stood at 0.75 and the SMN2 luciferase ratio came out at 0.81.
In the same order, the values of `Cc1ccccc1C(OCCN(C)C)c1ccccc1` (stereo not drawn) are 0.94 and 0.82.
Regarding `N[C@H](C(=O)O)[C@@H]1CC(Cl)=NO1`, the SMN2 luciferase ratio was 0.5 and the SMN1 luciferase ratio turned out to be 0.57.
In the same order, the values of `NCCc1ccc(O)c(O)c1` are 1.07 and 0.99.
On the same counts, the results for `Nc1ccc(C(=O)O)cc1` are 1.01 and 0.95.
In the same order, the values of `CC(=O)N[C@@H]1[C@@H](O)[C@H](O)[C@@H](CO)O[C@H]1O` are 0.83 and 0.84.
For `CC(C)Cn1c(=O)n(C)c(=O)c2[nH]cnc21`, the SMN2 luciferase ratio was determined as 0.94 and the SMN1 luciferase ratio amounted to 0.94.
Regarding `C[C@]12CCC3c4ccc(O)cc4CCC3C1C[C@@H](O)[C@@H]2O` (stereo partly drawn), the SMN1 luciferase ratio worked out at 0.98 and the SMN2 luciferase ratio was determined as 0.8.
As for `CC1(C)S[C@@H]2[C@H](NC(=O)Cc3ccccc3)C(=O)N2[C@H]1C(=O)O`, the SMN1 luciferase ratio is 0.97 and the SMN2 luciferase ratio came out at 0.85.
Turning to `O=C(Cn1ccnc1[N+](=O)[O-])NCCO`, the SMN2 luciferase ratio was found to be 1.03 and the SMN1 luciferase ratio came to 0.96.
On the same counts, the results for `C[C@@H]1CC2C3CCC4=CC(=O)C=C[C@]4(C)[C@@]3(F)[C@@H](O)C[C@]2(C)[C@@]1(O)C(=O)COP(=O)(O)O` (stereo partly drawn) are 0.93 and 0.89.
For the molecule `O=C(O)c1cccnc1C(=O)O`, the SMN1 luciferase ratio worked out at 0.98 and the SMN2 luciferase ratio was determined as 0.96.
As for `Nc1nc2c(ncn2COCCO)c(=O)[nH]1`, the SMN2 luciferase ratio was determined as 0.95 and the SMN1 luciferase ratio turned out to be 0.9.
For the molecule `CC[C@H]1OC(=O)[C@H](C)[C@@H](O[C@H]2C[C@@](C)(OC)[C@@H](O)[C@H](C)O2)[C@H](C)[C@@H](O[C@@H]2O[C@H](C)C[C@H](N(C)C)[C@H]2O)[C@](C)(O)C[C@@H](C)C(=O)[C@H](C)[C@@H](O)[C@]1(C)O`, the SMN2 luciferase ratio is 1.08 and 0.87 and 0.96; the SMN1 luciferase ratio was 0.91 and 0.82 and 1.02.
On to `Nc1ncnc2c1ncn2C1OC(CO)[C@H](O)C1O` (stereo partly drawn), for which the SMN2 luciferase ratio came to 0.98 and the SMN1 luciferase ratio stood at 0.93.
In the same order, the values of `Cc1ccsc1/C=C/C1=NCCCN1C` are 0.91 and 0.96.
Turning to `NCCNC(=O)c1ccc(Cl)cc1`, the SMN2 luciferase ratio is 0.88 and the SMN1 luciferase ratio stood at 0.85.
On the same counts, the results for `CCn1nc(C(=O)O)c(=O)c2cc3c(cc21)OCO3` are 0.86 and 0.95.
On the same counts, the results for `CC1CC2C3CCC4=CC(=O)C=CC4(C)[C@@]3(F)C(O)CC2(C)[C@@]1(O)C(=O)CO` (stereo partly drawn) are 0.96 and 0.91.
On the same counts, the results for `CCC[C@@H]1C[C@@H](C(=O)N[C@H]([C@H]2O[C@H](SC)[C@H](O)[C@@H](O)[C@H]2O)[C@H](C)O)N(C)C1` are 0.92 and 0.93.
As to `CCC(C)CCCCC(=O)NC(CCN)C(=O)NC(C(=O)NC(CCN)C(=O)NC1CCNC(=O)C(C(C)O)NC(=O)C(CCN)NC(=O)C(CCN)NC(=O)C(CC(C)C)NC(=O)C(Cc2ccccc2)NC(=O)C(CCN)NC1=O)C(C)O` (stereo not drawn) ({Octanoyl(6-Me)}-[Dab]T[Dab][Dab][Dab]FL[Dab][Dab]T; lactam 4-C; configuration not given here), the SMN2 luciferase ratio amounted to 0.9 and the SMN1 luciferase ratio is 0.85.
On the same counts, the results for `COc1ccc(/C=C/c2cc(O)cc(O[C@@H]3O[C@H](CO)[C@@H](O)[C@H](O)[C@H]3O)c2)cc1O` are 2.97 and 2.39.
Consider `C1N2CN3CN1CN(C2)C3`, for which the SMN2 luciferase ratio was determined as 0.87 and the SMN1 luciferase ratio came out at 1.02.
Turning to `CN(C)CCOC(c1ccccc1)c1ccccc1`, the SMN1 luciferase ratio was determined as 0.88 and the SMN2 luciferase ratio amounted to 0.86.
On the same counts, the results for `Cc1cc(=O)[nH]c(=S)[nH]1` are 0.91 and 0.9.
